Data published in patent US20080280824A1, “COMPOSITIONS AND METHODS FOR TREATMENT OF CANCER OR NEURODEGENERATIVE DISEASE WITH PEPTIDE BASED MICROTUBULE STABILIZERS OR INHIBITORS” (University of Washington, priority 2007, published 2008).
Results are given in words; binding and its absence hold for the method and conditions named. Some results given as binding are weak or reduced against the parent protein; the word gives no strength.

Amino acid sequences for entries named in this document (tags omitted). A change or cut given only in a name is not applied to a line headed by its entry.
UniProt P81947: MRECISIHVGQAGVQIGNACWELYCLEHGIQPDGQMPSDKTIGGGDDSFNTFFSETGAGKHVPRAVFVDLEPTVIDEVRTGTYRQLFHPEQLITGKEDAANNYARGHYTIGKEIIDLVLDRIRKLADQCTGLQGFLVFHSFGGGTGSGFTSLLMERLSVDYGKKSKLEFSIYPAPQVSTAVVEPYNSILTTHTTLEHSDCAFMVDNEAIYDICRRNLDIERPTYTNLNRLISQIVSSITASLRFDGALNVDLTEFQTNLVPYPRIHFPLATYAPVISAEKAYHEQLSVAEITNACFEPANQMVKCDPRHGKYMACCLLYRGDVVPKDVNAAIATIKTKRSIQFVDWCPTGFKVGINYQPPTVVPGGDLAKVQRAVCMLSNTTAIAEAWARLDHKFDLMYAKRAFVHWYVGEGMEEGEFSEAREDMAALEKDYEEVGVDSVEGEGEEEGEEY
UniProt Q6B856: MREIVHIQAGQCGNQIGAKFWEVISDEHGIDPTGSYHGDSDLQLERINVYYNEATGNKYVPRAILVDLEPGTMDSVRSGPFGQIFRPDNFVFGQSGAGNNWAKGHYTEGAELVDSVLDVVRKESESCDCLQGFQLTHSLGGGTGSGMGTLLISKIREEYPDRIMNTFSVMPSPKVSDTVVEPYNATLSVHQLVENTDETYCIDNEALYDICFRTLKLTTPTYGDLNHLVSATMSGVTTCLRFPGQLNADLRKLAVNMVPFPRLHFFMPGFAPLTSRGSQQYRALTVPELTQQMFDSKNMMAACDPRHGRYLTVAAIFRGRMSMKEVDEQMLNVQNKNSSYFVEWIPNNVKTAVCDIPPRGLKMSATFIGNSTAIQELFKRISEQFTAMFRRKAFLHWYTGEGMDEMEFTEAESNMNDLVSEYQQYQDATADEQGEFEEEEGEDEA

Molecular target: Bovine brain tubulin (bovine) (UniProt P81947+Q6B856)
Assay: inferred from the dependence of microtubule assembly on the αB crystallin concentration; no direct binding assay

binding: binds
B1: wt human αB crystallin (protein, UniProt P02511 1-175, looked up)
chain: MDIAIHHPWIRRPFFPFHSPSRLFDQFFGEHLLESDLFPTSTSLSPFYLRPPSFLRAPSWFDTGLSEMRLEKDRFSVNLDVKHFSPEELKVKVLGDVIEVHGKHEERQDEHGFISREFHRKYRIPADVDPLTITSSLSSDGVLTVNGPRKQVSGPERTIPITREEKPAVTAAPKK
